Our source for the binding values is paper PMC12160916.

By UniProt entry, the sequences of proteins in these tests, tags left out.
UniProt Q9HAU4: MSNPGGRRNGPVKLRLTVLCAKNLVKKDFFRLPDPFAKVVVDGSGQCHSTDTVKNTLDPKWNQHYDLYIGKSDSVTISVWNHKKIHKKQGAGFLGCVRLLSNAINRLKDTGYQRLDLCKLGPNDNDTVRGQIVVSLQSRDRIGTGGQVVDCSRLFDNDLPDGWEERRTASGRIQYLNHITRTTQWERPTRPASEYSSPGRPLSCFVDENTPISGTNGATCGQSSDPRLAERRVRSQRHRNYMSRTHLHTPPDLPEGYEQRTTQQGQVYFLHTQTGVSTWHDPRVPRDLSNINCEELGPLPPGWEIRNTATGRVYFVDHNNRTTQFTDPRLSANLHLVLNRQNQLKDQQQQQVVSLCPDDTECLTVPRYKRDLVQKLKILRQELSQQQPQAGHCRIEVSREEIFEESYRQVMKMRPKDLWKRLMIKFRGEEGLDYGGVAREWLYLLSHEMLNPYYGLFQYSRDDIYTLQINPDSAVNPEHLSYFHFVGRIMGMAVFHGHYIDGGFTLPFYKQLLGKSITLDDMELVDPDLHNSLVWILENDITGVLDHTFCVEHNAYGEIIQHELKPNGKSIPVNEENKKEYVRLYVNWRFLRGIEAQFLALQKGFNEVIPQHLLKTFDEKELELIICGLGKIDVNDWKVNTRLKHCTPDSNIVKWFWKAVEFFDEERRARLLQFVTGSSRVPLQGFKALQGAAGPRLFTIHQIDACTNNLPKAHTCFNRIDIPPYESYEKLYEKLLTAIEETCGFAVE
UniProt P67809: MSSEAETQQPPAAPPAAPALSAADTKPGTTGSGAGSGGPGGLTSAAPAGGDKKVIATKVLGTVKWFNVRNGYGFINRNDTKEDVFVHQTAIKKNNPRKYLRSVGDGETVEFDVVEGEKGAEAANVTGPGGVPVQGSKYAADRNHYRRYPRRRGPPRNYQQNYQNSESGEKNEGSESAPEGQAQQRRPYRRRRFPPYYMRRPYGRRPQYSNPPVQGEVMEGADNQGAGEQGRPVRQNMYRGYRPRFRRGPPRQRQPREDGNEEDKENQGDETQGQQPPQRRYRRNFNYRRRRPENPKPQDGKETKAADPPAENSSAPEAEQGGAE

This test concerns the target Smad-specific E3 ubiquitin ligase 2 (SMURF2) (human (endogenous in MDA-MB-231 and MCF-7)) (UniProt Q9HAU4). Nature of the test: co-IP; MDA-MB-231 and MCF-7 cells lysed in NP-40 lysis buffer; 1 mg lysate with 2 ug YBX1 antibody or 2 ug SMURF2 antibody overnight at 4°C, Protein A/G beads 6 h at 4°C, six washes, blotting; IgG control; also in control and MNX1-AS1-silenced cells (interaction enhanced by silencing).

Results are given in words; binding and its absence hold for the method and conditions named. Binding seen in cells or lysates may run through a third protein. Some results given as binding are weak or reduced against the parent protein; the word gives no strength.

On to “Y-box binding protein 1 (YBX1) (from UniProt P67809 1-324)”, for which the binding result is on record as “binds”.
